The list shows a part of the results.
Legend:
Assay in all cases: log2 fold change, soluble protein after heating vs DMSO (PISA); higher = thermal stabilisation; K562 lysate, 10 uM; active = over 0.2 and 3.5 SD of the protein, either way, in both replicates (recomputed)
[1] = compound: NCC(=O)Nc1ccc(-n2nc(C(F)(F)F)cc2-c2ccc3c(ccc4ccccc43)c2)cc1
Outline: (§1)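 Dounce homogenisation of K562 pellets in PBS pH 7.4 with 1 mM MgCl2 produced a crude extract, used at 1 mg/mL protein. Exposure to 10 μM compound lasted 30 min, and aliquots were then heated for 3 min across 48°C-58°C, pooled and brought to 0.5% NP-40 at 4°C. The supernatant after 21,000xg for 90 min was quantified by TMTpro 16plex LC-MS/MS with channel sums equalised. Duplicate values are given as log-two fold change in thermal stability relative to solvent controls.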

The chains behind the UniProt entries cited, without tags or fusion partners. Where a name states a change or a piece, a line headed by the entry shows the natural chain unless it says otherwise.
UniProt O00221: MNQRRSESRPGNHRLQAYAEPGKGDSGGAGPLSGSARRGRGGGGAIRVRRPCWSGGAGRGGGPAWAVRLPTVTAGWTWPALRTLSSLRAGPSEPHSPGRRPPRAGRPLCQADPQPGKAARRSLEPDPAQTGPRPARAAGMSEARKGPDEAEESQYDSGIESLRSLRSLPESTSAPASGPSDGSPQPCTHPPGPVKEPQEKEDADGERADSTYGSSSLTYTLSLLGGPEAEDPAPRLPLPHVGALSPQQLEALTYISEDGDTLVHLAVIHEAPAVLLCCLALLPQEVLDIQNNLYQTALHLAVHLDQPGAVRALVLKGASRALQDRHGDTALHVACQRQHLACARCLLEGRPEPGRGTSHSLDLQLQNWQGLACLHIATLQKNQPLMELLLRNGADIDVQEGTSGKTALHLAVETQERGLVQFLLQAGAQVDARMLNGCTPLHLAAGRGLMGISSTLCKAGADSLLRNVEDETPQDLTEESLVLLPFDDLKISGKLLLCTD
UniProt Q7RTR2: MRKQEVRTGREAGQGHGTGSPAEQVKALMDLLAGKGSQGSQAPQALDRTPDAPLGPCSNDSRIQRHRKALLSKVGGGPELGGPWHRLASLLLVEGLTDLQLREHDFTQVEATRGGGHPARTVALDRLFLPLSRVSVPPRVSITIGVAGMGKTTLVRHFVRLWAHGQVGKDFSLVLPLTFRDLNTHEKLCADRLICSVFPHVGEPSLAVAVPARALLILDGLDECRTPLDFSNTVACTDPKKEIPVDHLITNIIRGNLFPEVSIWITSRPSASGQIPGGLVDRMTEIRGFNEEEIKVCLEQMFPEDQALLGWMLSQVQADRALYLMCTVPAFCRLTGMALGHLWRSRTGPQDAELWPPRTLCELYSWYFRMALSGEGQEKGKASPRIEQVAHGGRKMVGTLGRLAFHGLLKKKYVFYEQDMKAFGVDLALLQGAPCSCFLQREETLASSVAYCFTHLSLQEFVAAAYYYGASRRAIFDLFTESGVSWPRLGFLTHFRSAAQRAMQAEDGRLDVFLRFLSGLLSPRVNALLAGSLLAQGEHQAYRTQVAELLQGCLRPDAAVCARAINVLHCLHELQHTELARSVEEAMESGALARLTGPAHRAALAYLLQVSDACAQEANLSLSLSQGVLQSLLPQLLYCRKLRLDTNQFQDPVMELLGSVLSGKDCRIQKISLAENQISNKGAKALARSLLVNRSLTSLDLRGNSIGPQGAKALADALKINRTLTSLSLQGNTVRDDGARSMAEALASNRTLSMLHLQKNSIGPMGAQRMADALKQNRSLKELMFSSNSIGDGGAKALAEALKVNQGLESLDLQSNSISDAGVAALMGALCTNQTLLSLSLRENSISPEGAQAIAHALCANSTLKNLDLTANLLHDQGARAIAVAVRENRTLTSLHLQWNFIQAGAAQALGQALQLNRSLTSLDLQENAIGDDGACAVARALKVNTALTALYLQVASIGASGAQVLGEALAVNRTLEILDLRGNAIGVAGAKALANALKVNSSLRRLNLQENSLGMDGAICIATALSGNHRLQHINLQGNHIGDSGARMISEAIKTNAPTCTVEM
UniProt P51957: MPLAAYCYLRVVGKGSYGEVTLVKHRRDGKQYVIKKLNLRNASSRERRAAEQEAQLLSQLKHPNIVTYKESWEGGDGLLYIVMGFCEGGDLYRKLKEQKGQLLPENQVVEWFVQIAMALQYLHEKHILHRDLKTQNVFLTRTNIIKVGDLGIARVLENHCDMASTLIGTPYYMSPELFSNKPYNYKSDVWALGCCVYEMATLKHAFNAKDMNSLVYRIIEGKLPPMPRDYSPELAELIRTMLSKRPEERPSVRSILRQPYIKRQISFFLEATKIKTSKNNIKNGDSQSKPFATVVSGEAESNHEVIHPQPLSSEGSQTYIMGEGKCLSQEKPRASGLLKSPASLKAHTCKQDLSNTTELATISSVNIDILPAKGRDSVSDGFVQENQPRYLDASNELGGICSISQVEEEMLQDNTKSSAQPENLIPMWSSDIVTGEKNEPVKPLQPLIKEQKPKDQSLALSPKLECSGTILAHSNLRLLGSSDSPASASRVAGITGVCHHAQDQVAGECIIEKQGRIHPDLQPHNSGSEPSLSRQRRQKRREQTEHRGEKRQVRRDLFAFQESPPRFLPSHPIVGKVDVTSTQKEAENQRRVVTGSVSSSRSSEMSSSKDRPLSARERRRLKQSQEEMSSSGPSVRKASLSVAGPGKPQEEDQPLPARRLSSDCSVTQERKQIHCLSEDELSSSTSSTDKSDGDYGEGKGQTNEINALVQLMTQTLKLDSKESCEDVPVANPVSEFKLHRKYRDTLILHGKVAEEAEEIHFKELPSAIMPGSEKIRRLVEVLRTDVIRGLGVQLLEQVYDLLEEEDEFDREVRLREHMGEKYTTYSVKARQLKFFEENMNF
UniProt Q7Z628: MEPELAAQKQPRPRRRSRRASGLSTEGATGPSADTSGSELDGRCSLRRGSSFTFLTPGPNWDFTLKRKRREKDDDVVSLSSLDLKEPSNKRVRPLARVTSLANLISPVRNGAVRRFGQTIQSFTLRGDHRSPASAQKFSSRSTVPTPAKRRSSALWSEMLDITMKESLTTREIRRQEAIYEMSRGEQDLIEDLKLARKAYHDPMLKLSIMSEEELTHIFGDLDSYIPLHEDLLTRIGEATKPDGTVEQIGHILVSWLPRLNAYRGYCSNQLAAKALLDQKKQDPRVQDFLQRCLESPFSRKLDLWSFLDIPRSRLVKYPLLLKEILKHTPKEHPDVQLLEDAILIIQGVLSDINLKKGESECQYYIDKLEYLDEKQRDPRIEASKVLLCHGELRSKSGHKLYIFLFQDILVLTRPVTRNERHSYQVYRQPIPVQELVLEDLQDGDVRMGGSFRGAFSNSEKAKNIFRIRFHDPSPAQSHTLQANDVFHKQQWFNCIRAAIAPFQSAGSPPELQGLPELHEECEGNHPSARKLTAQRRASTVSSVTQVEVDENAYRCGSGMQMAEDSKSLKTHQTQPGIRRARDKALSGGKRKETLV
UniProt Q92597: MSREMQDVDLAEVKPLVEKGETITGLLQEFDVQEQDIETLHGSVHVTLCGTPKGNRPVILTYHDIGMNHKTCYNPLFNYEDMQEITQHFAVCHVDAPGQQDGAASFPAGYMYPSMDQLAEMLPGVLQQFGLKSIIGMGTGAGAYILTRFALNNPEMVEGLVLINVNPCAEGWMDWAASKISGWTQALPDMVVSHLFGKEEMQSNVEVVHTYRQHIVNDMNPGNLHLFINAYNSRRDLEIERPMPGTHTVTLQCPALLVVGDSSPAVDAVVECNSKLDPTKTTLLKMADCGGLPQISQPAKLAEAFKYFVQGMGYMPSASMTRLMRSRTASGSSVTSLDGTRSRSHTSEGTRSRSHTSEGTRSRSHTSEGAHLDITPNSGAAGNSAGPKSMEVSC
UniProt P25963: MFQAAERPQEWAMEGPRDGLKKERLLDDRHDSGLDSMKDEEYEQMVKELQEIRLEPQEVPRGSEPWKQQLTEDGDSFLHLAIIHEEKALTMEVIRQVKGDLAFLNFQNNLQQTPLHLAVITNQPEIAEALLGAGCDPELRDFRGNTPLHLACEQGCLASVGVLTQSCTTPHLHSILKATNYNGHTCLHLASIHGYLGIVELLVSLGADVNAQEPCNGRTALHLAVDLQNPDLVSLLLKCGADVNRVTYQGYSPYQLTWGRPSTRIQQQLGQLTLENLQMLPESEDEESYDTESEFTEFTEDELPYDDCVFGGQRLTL
UniProt O14777: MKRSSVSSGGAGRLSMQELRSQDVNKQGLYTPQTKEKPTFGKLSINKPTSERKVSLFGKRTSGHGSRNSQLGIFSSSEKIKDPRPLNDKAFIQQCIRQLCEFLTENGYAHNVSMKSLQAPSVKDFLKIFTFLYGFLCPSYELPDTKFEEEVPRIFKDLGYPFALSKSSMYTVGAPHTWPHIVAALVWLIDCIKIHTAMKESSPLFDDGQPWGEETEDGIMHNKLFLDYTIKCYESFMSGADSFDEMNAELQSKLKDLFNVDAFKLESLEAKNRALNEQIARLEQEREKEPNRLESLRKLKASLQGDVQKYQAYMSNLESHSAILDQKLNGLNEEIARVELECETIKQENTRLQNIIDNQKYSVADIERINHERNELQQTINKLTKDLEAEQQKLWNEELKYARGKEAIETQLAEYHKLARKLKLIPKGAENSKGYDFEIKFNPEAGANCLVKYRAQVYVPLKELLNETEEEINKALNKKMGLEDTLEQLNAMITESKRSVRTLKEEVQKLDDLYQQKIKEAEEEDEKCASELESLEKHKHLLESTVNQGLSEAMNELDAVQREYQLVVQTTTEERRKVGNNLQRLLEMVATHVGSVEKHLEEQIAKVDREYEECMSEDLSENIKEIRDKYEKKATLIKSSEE
UniProt P56556, whole entry, looked up: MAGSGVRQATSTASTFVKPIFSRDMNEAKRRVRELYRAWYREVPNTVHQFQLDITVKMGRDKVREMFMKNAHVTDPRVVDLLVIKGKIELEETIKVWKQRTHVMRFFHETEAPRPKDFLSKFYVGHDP
UniProt P19838: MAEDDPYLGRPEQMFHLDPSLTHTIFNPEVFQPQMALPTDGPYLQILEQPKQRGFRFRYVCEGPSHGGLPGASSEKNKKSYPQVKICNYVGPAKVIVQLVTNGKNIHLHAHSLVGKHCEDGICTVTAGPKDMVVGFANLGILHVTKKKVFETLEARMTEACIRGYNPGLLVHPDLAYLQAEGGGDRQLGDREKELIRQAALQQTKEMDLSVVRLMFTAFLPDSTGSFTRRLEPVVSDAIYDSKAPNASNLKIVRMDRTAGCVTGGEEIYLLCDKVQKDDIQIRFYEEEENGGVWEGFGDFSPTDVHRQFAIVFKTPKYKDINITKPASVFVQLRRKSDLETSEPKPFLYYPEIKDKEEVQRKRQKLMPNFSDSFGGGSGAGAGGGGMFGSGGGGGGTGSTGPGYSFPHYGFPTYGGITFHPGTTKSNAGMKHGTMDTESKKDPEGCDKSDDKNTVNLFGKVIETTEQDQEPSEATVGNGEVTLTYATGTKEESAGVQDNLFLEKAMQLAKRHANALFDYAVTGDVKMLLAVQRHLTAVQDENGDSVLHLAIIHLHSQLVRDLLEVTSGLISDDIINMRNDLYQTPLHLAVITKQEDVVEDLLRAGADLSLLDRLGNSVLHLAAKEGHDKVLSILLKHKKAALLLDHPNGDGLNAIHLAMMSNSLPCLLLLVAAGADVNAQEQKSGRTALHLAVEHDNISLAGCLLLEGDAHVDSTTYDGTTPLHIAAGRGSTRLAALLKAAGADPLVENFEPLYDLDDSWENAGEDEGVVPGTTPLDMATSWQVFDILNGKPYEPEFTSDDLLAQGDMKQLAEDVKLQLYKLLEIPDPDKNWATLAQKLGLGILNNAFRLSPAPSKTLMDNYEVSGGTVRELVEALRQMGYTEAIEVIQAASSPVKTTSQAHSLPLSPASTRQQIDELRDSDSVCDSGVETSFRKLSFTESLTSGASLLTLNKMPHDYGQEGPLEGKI

[2] = compound: O=C(CCCCCCC(=O)Nc1ccccc1)NO [vorinostat]
Outline: as §1

[3] = compound: O=C(O)c1ccc2c(c1)nc(Nc1cccc(Cl)c1)c1ccncc12 [silmitasertib]
Outline: as §1

[4] = compound: O=C1NC(=O)C(c2cnc3ccccn23)=C1c1cn2c3c(cc(F)cc13)CN(C(=O)N1CCCCC1)CC2
Outline: as §1

[5] = compound: c1cn2cc(-c3ccc4cn[nH]c4c3)nc(Nc3ccc(N4CCOCC4)cc3)c2n1 [entospletinib]
Outline: as §1

Measured: log2 fold change

NFKBIE (UniProt O00221)
inactive: [1] -0.08 | [2] 0.005 | [3] 0.114 | [4] -0.017 | [5] -0.036

NLRC3 isoform 2 (UniProt Q7RTR2)
inactive: [1] 0.054 | [2] 0.049 | [3] -0.026 | [4] 0.031 | [5] -0.006

NEK4 (UniProt P51957)
inactive: [1] -0.038

NET1 (UniProt Q7Z628)
inactive: [1] -0.021 | [2] 0 | [3] -0.003 | [4] -0.26

NDRG1 (UniProt Q92597)
inactive: [1] -0.099 | [2] -0.019 | [3] 0.12 | [4] -0.059

NFKBIA (UniProt P25963)
inactive: [1] -0.105 | [2] -0.225 | [3] 0.172 | [4] -0.082

NDC80 (UniProt O14777)
inactive: [1] -0.047 | [2] -0.176 | [3] 0.034 | [4] 0.012 | [5] 0.014

Two neighbouring records already listed, quoted:
NFKBIA (UniProt P25963)
inactive: [1] -0.105 | [2] -0.225 | [3] 0.172 | [4] -0.082

NDC80 (UniProt O14777)
inactive: [1] -0.047 | [2] -0.176 | [3] 0.034 | [4] 0.012 | [5] 0.014

Remaining list, next part.

NDUFA6 (UniProt P56556)
inactive: [1] -0.054 | [2] 0.042 | [3] 0.018 | [4] 0.012 | [5] -0.039

NEU4 (UniProt C9JEA3)
inactive: [1] 0.014 | [2] -0.06 | [3] 0.027 | [4] -0.219

NFKB1 isoform 2 (UniProt P19838)
inactive: [1] 0.008 | [2] -0.198 | [3] 0.01 | [4] -0.041 | [5] -0.033
